# Measurements taken from PMC2945768.
# By UniProt entry, the sequences of proteins in these tests, tags left out. Where a name states a change or a piece, a line headed by the entry shows the natural chain unless it says otherwise.
# UniProt Q8BG05: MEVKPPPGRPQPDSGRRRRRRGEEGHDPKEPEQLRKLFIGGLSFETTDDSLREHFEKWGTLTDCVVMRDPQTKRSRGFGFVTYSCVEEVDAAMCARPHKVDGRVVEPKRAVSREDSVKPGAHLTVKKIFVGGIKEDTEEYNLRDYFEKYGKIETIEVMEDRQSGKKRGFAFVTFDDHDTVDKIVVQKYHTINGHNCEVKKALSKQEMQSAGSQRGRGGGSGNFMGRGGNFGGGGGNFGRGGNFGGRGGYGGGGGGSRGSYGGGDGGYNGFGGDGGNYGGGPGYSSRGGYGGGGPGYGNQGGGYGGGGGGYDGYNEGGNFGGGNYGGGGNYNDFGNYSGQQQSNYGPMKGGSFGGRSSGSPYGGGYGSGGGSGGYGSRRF
# The exact form of at least one protein or probe is not confirmed. Results from cells or extracts need not show a direct contact. For some assays here: At least one verdict rests on a figure or table, not on a statement of the authors.
# What was measured:
# [1] = target: hnRNP A3 (Mus musculus (C57BL/6J, 6 months, liver)) (UniProt Q8BG05); test: competition with a labelled probe; settings: cold N2 against 32P-N1, liver nuclear extract; 10 mM Tris-HCl (pH not stated), 50 mM NaCl, 5% glycerol, 1 mM DTT, 1 mM EDTA, 0.2 ug yeast RNA, 15 U RNase inhibitor; 2.5-10 ug mouse liver nuclear extract, 50 min on ice; protein in an extract; label: 32P-UTP internal (unlabelled as competitor)
# [2] = target: hnRNP A3 (Mus musculus (C57BL/6J, 6 months, liver)) (UniProt Q8BG05); test: EMSA, UV cross-linking, 2DE, MALDI-TOF/MS; settings: bound form unphosphorylated at Ser359, competed by cold N2 and cold N1; 10 mM Tris-HCl (pH not stated), 50 mM NaCl, 5% glycerol, 1 mM DTT, 1 mM EDTA, 0.2 ug yeast RNA, 15 U RNase inhibitor; 2.5-10 ug mouse liver nuclear extract, 50 min on ice; protein in an extract; label: 32P-UTP internal (unlabelled as competitor)
sequence,measurement,setting,value
GAAAUCAUUAAUUUAAUCAUAUUGGUAAUAUAUAUAUAUUAUAUCUCUAA [mFIX-AIE RNA],binding result,[1],binds
same,binding result,[2],binds
